According to patent publication US10479819B2 (priority 2014, dated 2019):
Some results were stated once for a whole list of compounds, not compound by compound. Starred links: 1 amine or outer side, 2 acyl side, 3 side chain; linkers in the order of their positions; H or OH if unused. Non-standard residues stand in square brackets, D forms with d. Residues, ends and D or L forms follow the SMILES beside them. Groups on a side chain read outwards from the residue. *: point of attachment. C18 diacid = O=C(O)CCCCCCCCCCCCCCCCC(=O)*; γGlu = O=C(O)[C@H](CCC(=O)[*:2])N[*:1]; Palmitoyl = CCCCCCCCCCCCCCCC(=O)*; PEG2 = NCCOCCOCCC(=O)O

Test: Pharmacokinetic analysis after IV or SC administration in male CD1 mice
Protocol: Pharmacokinetic parameters of the drugs were calculated by methods of model dependence (for data obtained from IV) and model independence (data obtained from SC).
In the case of `CC[C@H](C)[C@H](NC(=O)[C@H](Cc1ccccc1)NC(=O)[C@H](CCC(=O)O)NC(=O)[C@H](CCCCNC(=O)CCOCCOCCNC(=O)CCOCCOCCNC(=O)CC[C@H](NC(=O)CCCCCCCCCCCCCCCCC(=O)O)C(=O)O)NC(=O)[C@H](C)NC(=O)[C@H](C)NC(=O)[C@H](CCCCN)NC(=O)[C@H](CCC(=O)O)NC(=O)[C@H](CC(=O)O)NC(=O)[C@H](CC(C)C)NC(=O)[C@H](Cc1ccc(O)cc1)NC(=O)[C@H](CCCCN)NC(=O)[C@H](CO)NC(=O)[C@H](Cc1ccc(O)cc1)NC(=O)[C@H](CC(=O)O)NC(=O)[C@H](CO)NC(=O)[C@@H](NC(=O)[C@H](Cc1ccccc1)NC(=O)[C@@H](NC(=O)CNC(=O)[C@H](CCC(N)=O)NC(=O)[C@@H](CO)NC(=O)[C@@H](N)Cc1c[nH]cn1)[C@@H](C)O)[C@@H](C)O)C(=O)N[C@@H](CCC(=O)O)C(=O)N[C@@H](Cc1c[nH]c2ccccc12)C(=O)N[C@@H](CC(C)C)C(=O)N[C@@H](CC(C)C)C(=O)N[C@@H](CC(N)=O)C(=O)NCC(=O)NCC(=O)N1CCC[C@H]1C(=O)N[C@@H](CO)C(=O)N[C@@H](CO)C(=O)NCC(=O)N[C@@H](C)C(=O)N1CCC[C@H]1C(=O)N1CCC[C@H]1C(=O)N1CCC[C@H]1C(=O)N[C@@H](CO)C(N)=O` [Compound 4] (H-H[dS]QGTFTSDYSKYLDEKAAK([PEG2-PEG2-γGlu-C18 diacid])EFIEWLLNGGPSSGAPPPS-NH2), the peak time is reported as “more than 12 hours”. With `CCCCCCCCCCCCCCCC(=O)NCCOCCOCCC(=O)NCCOCCOCCC(=O)NCCCC[C@H](NC(=O)[C@H](C)NC(=O)[C@H](C)NC(=O)[C@H](CCCCN)NC(=O)[C@H](CCC(=O)O)NC(=O)[C@H](CC(=O)O)NC(=O)[C@H](CC(C)C)NC(=O)[C@H](Cc1ccc(O)cc1)NC(=O)[C@H](CCCCN)NC(=O)[C@H](CO)NC(=O)[C@H](Cc1ccc(O)cc1)NC(=O)[C@H](CC(=O)O)NC(=O)[C@H](CO)NC(=O)[C@@H](NC(=O)[C@H](Cc1ccccc1)NC(=O)[C@@H](NC(=O)CNC(=O)[C@H](CCC(N)=O)NC(=O)[C@@H](CO)NC(=O)[C@@H](N)Cc1c[nH]cn1)[C@@H](C)O)[C@@H](C)O)C(=O)N[C@@H](CCC(=O)O)C(=O)N[C@@H](Cc1ccccc1)C(=O)N[C@H](C(=O)N[C@@H](CCC(=O)O)C(=O)N[C@@H](Cc1c[nH]c2ccccc12)C(=O)N[C@@H](CC(C)C)C(=O)N[C@@H](CC(C)C)C(=O)N[C@@H](CC(N)=O)C(=O)NCC(=O)NCC(=O)N1CCC[C@H]1C(=O)N[C@@H](CO)C(=O)N[C@@H](CO)C(=O)NCC(=O)N[C@@H](C)C(=O)N1CCC[C@H]1C(=O)N1CCC[C@H]1C(=O)N1CCC[C@H]1C(=O)N[C@@H](CO)C(N)=O)[C@@H](C)CC` [Compound 23] (H-H[dS]QGTFTSDYSKYLDEKAAK([PEG2-PEG2-Palmitoyl])EFIEWLLNGGPSSGAPPPS-NH2) the peak time was “more than 12 hours”. For `CCCCCCCCCCCCCCCC(=O)N[C@@H](CCC(=O)NCCOCCOCCC(=O)NCCOCCOCCC(=O)NCCCC[C@H](NC(=O)[C@H](C)NC(=O)[C@H](C)NC(=O)[C@H](CCCCN)NC(=O)[C@H](CCC(=O)O)NC(=O)[C@H](CC(=O)O)NC(=O)[C@H](CC(C)C)NC(=O)[C@H](Cc1ccc(O)cc1)NC(=O)[C@H](CCCCN)NC(=O)[C@H](CO)NC(=O)[C@H](Cc1ccc(O)cc1)NC(=O)[C@H](CC(=O)O)NC(=O)[C@H](CO)NC(=O)[C@@H](NC(=O)[C@H](Cc1ccccc1)NC(=O)[C@@H](NC(=O)CNC(=O)[C@H](CCC(N)=O)NC(=O)[C@@H](CO)NC(=O)[C@@H](N)Cc1c[nH]cn1)[C@@H](C)O)[C@@H](C)O)C(=O)N[C@@H](CCC(=O)O)C(=O)N[C@@H](Cc1ccccc1)C(=O)N[C@H](C(=O)N[C@@H](CCC(=O)O)C(=O)N[C@@H](Cc1c[nH]c2ccccc12)C(=O)N[C@@H](CC(C)C)C(=O)N[C@@H](CC(C)C)C(=O)N[C@@H](CC(N)=O)C(=O)NCC(=O)NCC(=O)N1CCC[C@H]1C(=O)N[C@@H](CO)C(=O)N[C@@H](CO)C(=O)NCC(=O)N[C@@H](C)C(=O)N1CCC[C@H]1C(=O)N1CCC[C@H]1C(=O)N1CCC[C@H]1C(=O)N[C@@H](CO)C(N)=O)[C@@H](C)CC)C(=O)O` [Compound 24] (H-H[dS]QGTFTSDYSKYLDEKAAK([PEG2-PEG2-γGlu-Palmitoyl])EFIEWLLNGGPSSGAPPPS-NH2), the peak time was “more than 12 hours”.
